The list shows a part of the results.
target: OsWRKY34 (Oryza sativa, UniProt Q0JBA9 1-250); experiment: protein-binding microarray (RPBM); PBS, 2% BSA, 51.3 ng/ul salmon testes DNA, 50 uM zinc acetate, 200 nM TF, 25 C, 1 h; high values mean tight binding; settings: protein: recombinant; tags: N-terminal polyhistidine and DsRed monomer fusion (pET32a); label: CyDye5-dUTP incorporated in the synthesized complementary strand; 3' TTTTT single-stranded linker to array surface; dsDNA, one strand shown
Method in brief: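 Using Ni–NTA, transcription factors fused N-terminally to polyhistidine and DsRed were purified after expression in E. coli BL21-CodonPlus. These were incubated at 200 nM with a blocked, double-stranded custom Agilent array for 1 h at 25 °C in a buffer containing 50 µM zinc acetate, and the array was washed. The binding signal is per-feature fluorescence intensity (arbitrary units) on an Axon 4000B scanner.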

The chains behind the UniProt entries cited, without tags or fusion partners.
UniProt Q0JBA9, entry or part of it: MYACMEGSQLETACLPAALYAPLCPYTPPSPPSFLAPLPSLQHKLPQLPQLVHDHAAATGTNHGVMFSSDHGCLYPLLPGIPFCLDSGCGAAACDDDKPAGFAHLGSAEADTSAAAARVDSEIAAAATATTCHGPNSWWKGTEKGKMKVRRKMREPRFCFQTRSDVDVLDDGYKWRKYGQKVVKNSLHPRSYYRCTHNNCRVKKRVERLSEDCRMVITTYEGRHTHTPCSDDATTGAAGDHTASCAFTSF

In order of falling binding signal:
1. GGCGGTGGGTGGGTGGAGCCGTGGAGGGATGGAGGGAGGGCGGAGTCACCTAGTGCAG  37900 fluorescence intensity (a.u.)
2. CTTGCGGTTCATTTGGGGTTGGTTGGTTCTAGGGTACTGTCGGAGTCACCTAGTGCAG  16700 fluorescence intensity (a.u.)
3. CACCTGTATCTCATCGACCCTGAAGCTTCAACATTGCTAACGGAGTCACCTAGTGCAG  14500 fluorescence intensity (a.u.)
4. TCCTGTGTTTTTCCTATTCCTCTGTTTTTTCATTCCTACGCGGAGTCACCTAGTGCAG  14000 fluorescence intensity (a.u.)
5. GAAAGTTGACTCTGTGCGATTTCTTCTTCTTCGTGTTGTTCGGAGTCACCTAGTGCAG  13900 fluorescence intensity (a.u.)
6. TCCGCCGTCGTCTTTTTTGCGCAAACTTCCACACCACCACCGGAGTCACCTAGTGCAG  10900 fluorescence intensity (a.u.)
7. GATTCTTCTTATTGCTTTTTGGGTAGTTTCACCTTTTTCACGGAGTCACCTAGTGCAG  10700 fluorescence intensity (a.u.)
8. TATCTTGCCTAGCATATTGTCCGTGCGTTATTGCGATTTTCGGAGTCACCTAGTGCAG  10500 fluorescence intensity (a.u.)
9. CAGAGCCCTCACGCTTCCGCAACCACCACCGCGTCCGTGACGGAGTCACCTAGTGCAG  10400 fluorescence intensity (a.u.)
10. GCCTCTTCATTTTTTTTTCCTCAACTCATCATATTCATACCGGAGTCACCTAGTGCAG  10300 fluorescence intensity (a.u.)
11. TTTCCTACTCTTTGCACTTACATTTGTAGTTTTATGTTTACGGAGTCACCTAGTGCAG  10100 fluorescence intensity (a.u.)
12. AGCCCACTTGTGTCCTGCCACGTGTGTTATATCCTGAATACGGAGTCACCTAGTGCAG  10000 fluorescence intensity (a.u.)
13. GAGAATGGAACAATATAGGGGTATTGCTAGTGGGCGGGTGCGGAGTCACCTAGTGCAG  9830 fluorescence intensity (a.u.)
14. CAACTTTAAATCTCTCTTAGTTGCTCTTGGTCATTTTTATCGGAGTCACCTAGTGCAG  9810 fluorescence intensity (a.u.)
15. CCGGCCATGAATTCCTACGTCCGTCACTGTTCACATCTATCGGAGTCACCTAGTGCAG  9710 fluorescence intensity (a.u.)
16. CCGGCGCCACCAGCTTCCCGCTCGTCATCAACAGCGCCGCCGGAGTCACCTAGTGCAG  9690 fluorescence intensity (a.u.)
17. GTTATTAGTCTATGTTTAATACTTCAAATGTGTGTTTGTACGGAGTCACCTAGTGCAG  9290 fluorescence intensity (a.u.)
18. CGAACCACTTGCTCCCGCCATTAATCGCTTCCTCCAACTCCGGAGTCACCTAGTGCAG  9270 fluorescence intensity (a.u.)
19. CTTCTTTCCTCTCTGAGCCATTTTCAGCCCATGTTCTTCACGGAGTCACCTAGTGCAG  9190 fluorescence intensity (a.u.)
20. ACACCACCTGCTCCTGCCGCCAAACAACCAGCCATGCTCACGGAGTCACCTAGTGCAG  9180 fluorescence intensity (a.u.)
21. CTACTCCACTTACATGGTTTTCTCCTATACCGACCGCAACCGGAGTCACCTAGTGCAG  9070 fluorescence intensity (a.u.)
22. CTTCTCCATAGCTCACGCTCCTTCACGCACACGCCTCGCTCGGAGTCACCTAGTGCAG  8970 fluorescence intensity (a.u.)
23. TCCAGCTGTTGTTCTTGATTCCTTGTTCTTCGGCGATCATCGGAGTCACCTAGTGCAG  8850 fluorescence intensity (a.u.)
24. ATGTTTACTAGTTAACTAGCATTCCTTTAATTTCATATTTCGGAGTCACCTAGTGCAG  8850 fluorescence intensity (a.u.)
25. CTCAGGTCAAACTTGGACTTTATCCATCATTCCATCCTCTCGGAGTCACCTAGTGCAG  8830 fluorescence intensity (a.u.)
26. CGTGATGAATCTTGGCATGCGTCTATTAGCTGTGCCCACGCGGAGTCACCTAGTGCAG  8780 fluorescence intensity (a.u.)
27. GATCGCACACCCAATTGATCACTCATTATGGCGTATTCCGCGGAGTCACCTAGTGCAG  8780 fluorescence intensity (a.u.)
28. ATATGCGATAACTATTTTCAGTTTAACTTGTTATTTTTTGCGGAGTCACCTAGTGCAG  8720 fluorescence intensity (a.u.)
29. TCCGCCGCCTCGCTCGCTCGCTCGCCGTCCGCCGCCTCGCCGGAGTCACCTAGTGCAG  8640 fluorescence intensity (a.u.)
30. CCATCTCTCCCAAGCTTCTTCCTTCTAATCCTTGCTGACACGGAGTCACCTAGTGCAG  8620 fluorescence intensity (a.u.)
31. GCCACTGCCACTGCCACCGGTCACACTCGTCAGGCACTCACGGAGTCACCTAGTGCAG  8610 fluorescence intensity (a.u.)
32. TATCCCTCTCTCTCTCTCACACACATCTCTTTTTGCAAGACGGAGTCACCTAGTGCAG  8570 fluorescence intensity (a.u.)
33. GTTCTTCTCTTCTGCATTTTGCCTGGAGTTCATGGCTAATCGGAGTCACCTAGTGCAG  8550 fluorescence intensity (a.u.)
34. CTCACGTGCGCGCCACCACCACCCCATGCAGACCCAGCAGCGGAGTCACCTAGTGCAG  8480 fluorescence intensity (a.u.)
35. TTGTCAACCGTGAGAATTGCTACCTGCTGCTTACTCCCACCGGAGTCACCTAGTGCAG  8410 fluorescence intensity (a.u.)
36. AGCTTCGACACTGCACTCAATGCCCTCACACGCTAAAGGCCGGAGTCACCTAGTGCAG  8360 fluorescence intensity (a.u.)
37. ACCCTCCCCACTCTGCCCTACTTTCTCTCTCTACACCCATCGGAGTCACCTAGTGCAG  8350 fluorescence intensity (a.u.)
38. TTATTTTCTTCGTATTGATTTATTGTACAATGTTACTGTACGGAGTCACCTAGTGCAG  8250 fluorescence intensity (a.u.)
39. TGCAACACTAAACACATGGGCCCACATGTCAGTCTGCCGCCGGAGTCACCTAGTGCAG  8240 fluorescence intensity (a.u.)
40. ACATACTCAAAAGATATATTTTGAAATCCTTGTCATTGTACGGAGTCACCTAGTGCAG  8150 fluorescence intensity (a.u.)
41. CTCTCTTTATGTATGTCTCCCATTCACGTAGGCGTGTTATCGGAGTCACCTAGTGCAG  8100 fluorescence intensity (a.u.)
42. AAACTTCCAACTTTTCCATCACATCAAAGCTTTCTTACTCCGGAGTCACCTAGTGCAG  8030 fluorescence intensity (a.u.)

— publication PMC7819943, “Rice protein-binding microarrays: a tool to detect cis-acting elements near promoter regions in rice”
